Consider 2 molecules from patent US20050049198A1, “Method of modulating the activity of calcium channels in cardiac cells and reagents therefor” (priority 2001, published 2005).

Experiment [1] addresses cardiac ryanodine receptor (RyR2) calcium channel from sheep heart SR vesicles (sheep). The experiment can be described thus: no direct binding assay; inferred from Ca2+ release from cardiac SR vesicles.
For experiment [2] the target is unchanged. Briefly: no direct binding assay; inferred from single channel recording in lipid bilayers with control peptides NB and A1S.

Results are given in words; binding and its absence hold for the method and conditions named. Some binding calls cover weakened binding; strength is not graded here.

B1: 20-mer peptide of the II-III cytoplasmic loop of skeletal DHPR alpha-1 subunit (Thr671 to Leu690) (peptide)
peptide: TSAQKAKAEERKRRKMSRGL
Take B1: the binding result in experiment [1] and in experiment [2] was “binds” in each case.

B2: SEQ ID NO: 8 peptide (20-mer of SEQ ID NO: 2 with Ser687 replaced by alanine) (peptide)
peptide: TSAQKAKAEERKRRKMARGL
As for B2, the binding entry in experiment [1] is “binds”.
